The text below walks through data of paper PMC5087665.

Assay [1] addresses T1, GST–RP2 (retinitis pigmentosa 2) (UniProt O75695).
T1 sequence: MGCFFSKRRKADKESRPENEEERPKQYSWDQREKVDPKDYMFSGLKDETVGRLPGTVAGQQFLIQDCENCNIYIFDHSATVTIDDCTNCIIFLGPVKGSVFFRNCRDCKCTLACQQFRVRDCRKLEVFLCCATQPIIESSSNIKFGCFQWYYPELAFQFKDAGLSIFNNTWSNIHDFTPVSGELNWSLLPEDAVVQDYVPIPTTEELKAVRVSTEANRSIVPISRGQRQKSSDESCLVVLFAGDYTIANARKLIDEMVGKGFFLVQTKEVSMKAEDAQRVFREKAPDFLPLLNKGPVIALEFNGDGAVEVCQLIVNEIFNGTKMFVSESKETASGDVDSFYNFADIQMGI
The assay is described as follows: pull-down; Fig. 6B: HEK293T lysates co-expressing GFP–TNPO1 and Myc–Rab8-wt, -QL or -TN with bead-immobilized GST–f-CTS, GST–rhodopsin-CTS, GST–RP2 or GST; blotted for Myc–Rab8 and GFP–TNPO1; only the target purified.

The target in assay [2] is T1, GST–RP2 (retinitis pigmentosa 2). The assay is described as follows: pull-down; Fig. 6C: HEK293T lysates expressing Myc–Rab8-wt, -QL or -TN with bead-immobilized GST–RP2, GST–RP2-C86Y, P95L or GST; blotted for Myc–Rab8 and endogenous TNPO1; only the target purified.

Results are given in words; binding and its absence hold for the method and conditions named. Binding seen in cells or lysates may run through a third protein. A result given as binding can be weak or reduced; the word gives no strength. Where a sequence is shown, tags or fusion partners need not be part of it.

“Myc–Rab8-TN (GDP-locked mutant) (enzyme)”: the binding entry in assay [1] and in assay [2] was “binds” each time.
